Paper PMC4309906
Results are given in words; binding and its absence hold for the method and conditions named. Binding seen in cells or lysates may run through a third protein. Some binding calls cover weakened binding; strength is not graded here. Where a sequence is shown, tags or fusion partners need not be part of it.

Molecular target: T1, promyelocytic leukemia zinc finger protein (EGFP-PLZF) (UniProt Q05516)
T1 sequence: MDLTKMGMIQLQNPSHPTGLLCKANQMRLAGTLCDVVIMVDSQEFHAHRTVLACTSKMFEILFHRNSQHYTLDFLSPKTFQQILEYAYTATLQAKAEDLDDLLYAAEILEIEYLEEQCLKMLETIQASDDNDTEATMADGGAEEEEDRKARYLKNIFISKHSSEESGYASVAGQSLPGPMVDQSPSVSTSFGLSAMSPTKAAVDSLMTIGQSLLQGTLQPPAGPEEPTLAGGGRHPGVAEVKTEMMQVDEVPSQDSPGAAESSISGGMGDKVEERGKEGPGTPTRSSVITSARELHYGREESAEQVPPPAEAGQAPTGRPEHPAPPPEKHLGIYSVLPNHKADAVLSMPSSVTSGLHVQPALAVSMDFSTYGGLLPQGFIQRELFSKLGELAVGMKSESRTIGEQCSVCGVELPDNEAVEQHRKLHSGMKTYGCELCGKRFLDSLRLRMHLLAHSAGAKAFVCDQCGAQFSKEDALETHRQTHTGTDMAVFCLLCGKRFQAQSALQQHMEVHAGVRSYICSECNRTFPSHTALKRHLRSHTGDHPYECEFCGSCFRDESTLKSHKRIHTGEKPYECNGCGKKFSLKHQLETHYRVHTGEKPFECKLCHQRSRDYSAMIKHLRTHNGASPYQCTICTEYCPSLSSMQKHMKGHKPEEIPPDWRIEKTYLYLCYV
Assay: co-IP; U373MG cells transiently co-transfected with EGFP-PLZF and HA or HA-ZNF179 plasmids; lysis buffer 50 mM NaCl, 0.5 % NP-40, 10 mM Tris-HCl pH 8.0; anti-GFP antibody at 4 °C, protein-A/G agarose; washed three times with modified RIPA buffer; Western blot

B1: Zinc Finger Protein 179 (HA-ZNF179) (protein, UniProt Q9ULX5 1-631)
chain: MPRPALSVTSFCHRLGKRERKQSFMGNSGNSWSHTPFPKLELGLGPQPMAPRELPTCSICLERLRDPISLDCGHDFCIRCFSTHRLPGCEPPCCPECRKICKQKRGLRSLGEKMKLLPQRPLPPALQETCPVRAEPLLLVRINASGGLILRMGAINRCLKHPLARDTPVCLLAVLGEQHSGKSFLLNHLLQGLPGLESGEGGRPRGGEASLQGCRWGANGLARGIWMWSHPFLLGKEGKKVAVFLVDTGDAMSPELSRETRIKLCALTTMLSSYQILSTSQELKDTDLDYLEMFVHVAEVMGKHYGMVPIQHLDLLVRDSSHPNKAGQGHVGNIFQRLSGRYPKVQELLQGKRARCCLLPAPGRRRMNQGHASPGDTDDDFRHLLGAYVSDVLSAAPQHAKSRCQGYWNEGRAVARGDRRLLTGQQLAQEIKNLSGWMGRTGPGFTSPDEMAAQLHDLRKVEAAKREFEEYVRQQDVATKRIFSALRVLPDTMRNLLSTQKDAILARHGVALLCKGRDQTLEALEAELQATAKAFMDSYTMRFCGHLAAVGGAVGAGLMGLAGGVVGAGMAAAALAAEAGMVAAGAAVGATGAAVVGGGVGAGLAATVGCMEKEEDERLLEGDREPLLQEE
**Q.** How did the binding turn out when B1 was run?
**A.** binds
